Laboratory results taken from PMC2563034.
These are yes or no findings as the source states them, for the method shown.

Sequences of proteins named here, by UniProt entry; tags and fusion partners are left off.
UniProt Q9VPL9: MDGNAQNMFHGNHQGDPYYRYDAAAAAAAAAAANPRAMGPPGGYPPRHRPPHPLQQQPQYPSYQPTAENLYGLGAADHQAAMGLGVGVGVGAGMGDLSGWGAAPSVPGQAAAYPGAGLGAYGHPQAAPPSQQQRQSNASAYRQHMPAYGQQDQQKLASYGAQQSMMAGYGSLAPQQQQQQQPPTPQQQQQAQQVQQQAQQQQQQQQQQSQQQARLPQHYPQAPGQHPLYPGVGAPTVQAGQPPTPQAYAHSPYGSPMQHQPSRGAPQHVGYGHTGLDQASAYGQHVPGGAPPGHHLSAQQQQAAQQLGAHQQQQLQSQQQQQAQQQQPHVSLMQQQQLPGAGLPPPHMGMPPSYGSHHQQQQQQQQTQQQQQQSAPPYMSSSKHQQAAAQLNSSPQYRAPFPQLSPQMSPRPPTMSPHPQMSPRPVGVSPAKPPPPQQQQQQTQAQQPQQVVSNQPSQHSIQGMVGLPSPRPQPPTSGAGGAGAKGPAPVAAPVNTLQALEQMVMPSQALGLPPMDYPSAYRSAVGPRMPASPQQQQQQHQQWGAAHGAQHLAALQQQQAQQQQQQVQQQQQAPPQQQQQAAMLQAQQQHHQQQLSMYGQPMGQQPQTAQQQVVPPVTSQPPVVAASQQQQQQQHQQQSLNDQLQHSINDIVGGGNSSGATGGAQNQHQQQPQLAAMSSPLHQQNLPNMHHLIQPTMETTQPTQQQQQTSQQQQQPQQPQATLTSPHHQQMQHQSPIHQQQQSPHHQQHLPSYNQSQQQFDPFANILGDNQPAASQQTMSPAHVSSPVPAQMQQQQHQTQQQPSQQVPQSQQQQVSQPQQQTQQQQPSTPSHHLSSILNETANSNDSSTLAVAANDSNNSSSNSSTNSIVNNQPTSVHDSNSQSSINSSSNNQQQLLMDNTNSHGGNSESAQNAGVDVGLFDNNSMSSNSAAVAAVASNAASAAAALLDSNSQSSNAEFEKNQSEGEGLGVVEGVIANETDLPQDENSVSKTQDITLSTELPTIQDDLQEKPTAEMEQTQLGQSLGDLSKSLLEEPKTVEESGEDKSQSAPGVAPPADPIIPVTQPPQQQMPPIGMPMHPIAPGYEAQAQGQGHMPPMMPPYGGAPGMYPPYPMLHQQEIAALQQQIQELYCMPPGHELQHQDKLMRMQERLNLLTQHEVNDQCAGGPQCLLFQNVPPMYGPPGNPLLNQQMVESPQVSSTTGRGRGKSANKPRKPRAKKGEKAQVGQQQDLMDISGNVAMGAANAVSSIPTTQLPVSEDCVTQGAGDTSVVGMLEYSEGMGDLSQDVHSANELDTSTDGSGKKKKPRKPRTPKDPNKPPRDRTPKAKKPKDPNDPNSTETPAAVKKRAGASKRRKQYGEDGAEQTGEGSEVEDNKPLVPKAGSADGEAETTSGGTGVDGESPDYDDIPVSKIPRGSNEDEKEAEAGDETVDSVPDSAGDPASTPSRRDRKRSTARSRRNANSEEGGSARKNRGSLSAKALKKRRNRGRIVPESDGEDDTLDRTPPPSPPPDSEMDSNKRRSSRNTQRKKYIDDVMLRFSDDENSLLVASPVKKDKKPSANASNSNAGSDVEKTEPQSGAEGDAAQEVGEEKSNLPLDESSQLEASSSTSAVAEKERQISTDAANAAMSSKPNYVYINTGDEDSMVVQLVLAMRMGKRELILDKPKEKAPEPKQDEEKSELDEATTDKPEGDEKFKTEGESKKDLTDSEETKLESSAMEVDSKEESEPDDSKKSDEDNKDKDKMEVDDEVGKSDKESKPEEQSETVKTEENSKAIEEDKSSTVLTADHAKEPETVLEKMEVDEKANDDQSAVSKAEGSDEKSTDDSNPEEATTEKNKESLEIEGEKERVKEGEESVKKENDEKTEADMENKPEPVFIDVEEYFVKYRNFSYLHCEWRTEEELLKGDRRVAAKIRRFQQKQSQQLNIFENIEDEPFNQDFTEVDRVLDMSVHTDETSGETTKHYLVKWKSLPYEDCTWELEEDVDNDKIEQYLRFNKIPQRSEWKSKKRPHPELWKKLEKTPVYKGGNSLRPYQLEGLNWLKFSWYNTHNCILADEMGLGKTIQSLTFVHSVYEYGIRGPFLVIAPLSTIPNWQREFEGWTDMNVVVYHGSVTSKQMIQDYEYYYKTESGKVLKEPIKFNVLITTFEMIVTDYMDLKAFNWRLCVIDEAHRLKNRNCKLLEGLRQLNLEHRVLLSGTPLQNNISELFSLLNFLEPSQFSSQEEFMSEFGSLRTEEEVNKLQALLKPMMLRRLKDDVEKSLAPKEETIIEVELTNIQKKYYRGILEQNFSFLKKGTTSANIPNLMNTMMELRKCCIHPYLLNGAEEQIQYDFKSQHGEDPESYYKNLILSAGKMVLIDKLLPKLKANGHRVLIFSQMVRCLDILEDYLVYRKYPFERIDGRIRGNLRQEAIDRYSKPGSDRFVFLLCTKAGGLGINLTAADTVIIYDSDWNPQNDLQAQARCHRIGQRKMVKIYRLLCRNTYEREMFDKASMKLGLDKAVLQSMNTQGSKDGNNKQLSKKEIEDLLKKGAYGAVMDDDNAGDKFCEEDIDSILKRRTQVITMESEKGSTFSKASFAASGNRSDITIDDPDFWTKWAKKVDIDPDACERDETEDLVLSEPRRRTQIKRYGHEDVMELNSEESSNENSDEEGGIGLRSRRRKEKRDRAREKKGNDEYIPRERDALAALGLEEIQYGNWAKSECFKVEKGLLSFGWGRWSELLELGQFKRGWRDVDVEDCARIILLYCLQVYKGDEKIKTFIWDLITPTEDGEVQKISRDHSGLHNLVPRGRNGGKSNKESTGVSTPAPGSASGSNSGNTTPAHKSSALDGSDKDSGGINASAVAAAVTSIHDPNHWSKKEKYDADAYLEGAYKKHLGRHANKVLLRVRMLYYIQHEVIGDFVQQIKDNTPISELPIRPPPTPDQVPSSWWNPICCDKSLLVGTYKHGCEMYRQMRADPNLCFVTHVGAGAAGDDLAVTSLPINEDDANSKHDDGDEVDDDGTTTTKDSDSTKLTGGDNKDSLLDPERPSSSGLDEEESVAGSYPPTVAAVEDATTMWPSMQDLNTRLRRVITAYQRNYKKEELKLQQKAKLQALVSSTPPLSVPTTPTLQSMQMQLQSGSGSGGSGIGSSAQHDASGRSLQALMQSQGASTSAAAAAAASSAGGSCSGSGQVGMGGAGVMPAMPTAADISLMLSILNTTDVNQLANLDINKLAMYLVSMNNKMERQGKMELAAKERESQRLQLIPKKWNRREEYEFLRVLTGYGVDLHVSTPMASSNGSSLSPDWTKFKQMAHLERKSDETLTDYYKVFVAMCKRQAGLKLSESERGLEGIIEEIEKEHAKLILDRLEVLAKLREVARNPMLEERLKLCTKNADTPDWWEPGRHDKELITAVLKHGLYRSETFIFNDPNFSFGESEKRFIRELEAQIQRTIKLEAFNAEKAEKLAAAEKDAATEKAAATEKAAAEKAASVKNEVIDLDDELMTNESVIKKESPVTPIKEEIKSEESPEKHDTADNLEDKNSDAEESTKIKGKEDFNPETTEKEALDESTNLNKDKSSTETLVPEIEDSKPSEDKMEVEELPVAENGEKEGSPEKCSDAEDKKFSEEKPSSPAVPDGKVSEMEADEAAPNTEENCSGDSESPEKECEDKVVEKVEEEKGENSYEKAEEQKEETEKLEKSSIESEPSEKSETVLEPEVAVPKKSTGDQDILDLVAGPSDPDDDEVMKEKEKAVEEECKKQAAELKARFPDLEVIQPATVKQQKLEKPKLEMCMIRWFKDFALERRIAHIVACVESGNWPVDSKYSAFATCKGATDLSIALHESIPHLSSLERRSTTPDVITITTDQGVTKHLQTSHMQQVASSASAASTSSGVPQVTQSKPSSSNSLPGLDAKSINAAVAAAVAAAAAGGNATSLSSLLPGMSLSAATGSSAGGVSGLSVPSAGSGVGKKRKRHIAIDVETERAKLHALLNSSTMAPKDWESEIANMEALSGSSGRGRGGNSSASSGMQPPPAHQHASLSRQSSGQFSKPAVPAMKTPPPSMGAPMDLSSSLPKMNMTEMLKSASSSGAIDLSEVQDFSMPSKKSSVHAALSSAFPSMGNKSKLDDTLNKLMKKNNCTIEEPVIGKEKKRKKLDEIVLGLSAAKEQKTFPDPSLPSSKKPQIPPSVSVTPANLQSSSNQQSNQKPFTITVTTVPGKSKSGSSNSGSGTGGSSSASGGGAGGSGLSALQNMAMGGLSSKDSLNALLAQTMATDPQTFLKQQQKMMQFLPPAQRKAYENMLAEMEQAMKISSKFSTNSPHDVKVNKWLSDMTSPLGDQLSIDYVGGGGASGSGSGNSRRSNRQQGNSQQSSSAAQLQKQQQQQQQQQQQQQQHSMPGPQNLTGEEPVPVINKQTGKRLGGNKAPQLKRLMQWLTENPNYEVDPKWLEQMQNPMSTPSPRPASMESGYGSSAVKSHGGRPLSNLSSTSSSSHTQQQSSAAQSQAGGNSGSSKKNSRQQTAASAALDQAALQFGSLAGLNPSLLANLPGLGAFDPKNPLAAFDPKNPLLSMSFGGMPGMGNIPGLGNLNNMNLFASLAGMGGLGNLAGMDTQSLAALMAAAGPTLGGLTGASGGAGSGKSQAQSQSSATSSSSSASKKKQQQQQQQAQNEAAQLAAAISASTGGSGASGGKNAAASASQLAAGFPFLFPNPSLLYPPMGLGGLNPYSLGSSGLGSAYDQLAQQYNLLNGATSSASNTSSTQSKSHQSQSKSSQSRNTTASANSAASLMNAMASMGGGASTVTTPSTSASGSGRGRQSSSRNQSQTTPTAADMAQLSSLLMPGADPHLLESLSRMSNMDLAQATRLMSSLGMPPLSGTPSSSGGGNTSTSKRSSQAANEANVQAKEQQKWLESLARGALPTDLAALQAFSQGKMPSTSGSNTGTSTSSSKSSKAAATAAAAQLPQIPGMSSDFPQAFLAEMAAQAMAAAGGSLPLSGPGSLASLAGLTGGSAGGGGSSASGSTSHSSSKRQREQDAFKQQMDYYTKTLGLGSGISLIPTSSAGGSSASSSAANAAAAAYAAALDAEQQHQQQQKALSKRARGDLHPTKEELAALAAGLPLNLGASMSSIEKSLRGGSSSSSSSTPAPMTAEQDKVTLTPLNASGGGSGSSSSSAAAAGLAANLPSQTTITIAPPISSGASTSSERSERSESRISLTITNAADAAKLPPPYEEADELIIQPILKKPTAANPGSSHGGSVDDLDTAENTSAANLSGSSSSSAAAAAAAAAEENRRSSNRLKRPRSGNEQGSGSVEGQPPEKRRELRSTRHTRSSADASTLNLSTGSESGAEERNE

Target: Kismet-L (KIS-L), full-length protein from Drosophila embryo extracts (Drosophila (endogenous in embryos)) (UniProt Q9VPL9)
Experiment: sucrose density gradient sedimentation; extracts of 0-16 hour Drosophila embryos, 5-30% sucrose gradient in 50 mM Hepes pH 7.6, 500 mM NaCl, 0.55% Tween-20, 10% glycerol, 1 mM MgCl2, 1 mM EDTA, 4°C, 20 hours at 35,000 rpm (SW41); fractions blotted for BRM, KIS-L and ISWI

binding: no binding
Substance: Kismet-L (KIS-L), full-length protein from Drosophila embryo extracts (from UniProt Q9VPL9 1-5322)
